Test results as given in the supplement of paper PMC6411743.
± gives the standard deviation of the averaged measurements. This is a selection; strong and weak results do not stand in their true shares.

By UniProt entry, the sequences of proteins in these tests, tags left out. Where a name states a change or a piece, a line headed by the entry shows the natural chain unless it says otherwise.
UniProt P26583: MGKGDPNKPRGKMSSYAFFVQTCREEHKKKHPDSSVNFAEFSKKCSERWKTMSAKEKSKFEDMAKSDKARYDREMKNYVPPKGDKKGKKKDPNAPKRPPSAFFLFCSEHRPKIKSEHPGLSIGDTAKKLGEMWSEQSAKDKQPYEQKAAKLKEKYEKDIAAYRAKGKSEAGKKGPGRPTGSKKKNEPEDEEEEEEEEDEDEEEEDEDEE
UniProt P22626: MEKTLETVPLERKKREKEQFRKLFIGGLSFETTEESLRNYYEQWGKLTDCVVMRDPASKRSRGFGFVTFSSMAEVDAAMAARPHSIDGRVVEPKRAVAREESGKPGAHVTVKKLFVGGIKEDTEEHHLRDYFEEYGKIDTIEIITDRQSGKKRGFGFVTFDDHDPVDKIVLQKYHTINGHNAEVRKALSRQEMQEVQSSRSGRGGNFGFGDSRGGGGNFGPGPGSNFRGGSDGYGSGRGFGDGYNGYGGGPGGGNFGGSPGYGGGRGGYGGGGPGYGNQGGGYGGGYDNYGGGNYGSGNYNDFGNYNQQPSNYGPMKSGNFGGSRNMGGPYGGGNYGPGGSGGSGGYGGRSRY
UniProt P17050: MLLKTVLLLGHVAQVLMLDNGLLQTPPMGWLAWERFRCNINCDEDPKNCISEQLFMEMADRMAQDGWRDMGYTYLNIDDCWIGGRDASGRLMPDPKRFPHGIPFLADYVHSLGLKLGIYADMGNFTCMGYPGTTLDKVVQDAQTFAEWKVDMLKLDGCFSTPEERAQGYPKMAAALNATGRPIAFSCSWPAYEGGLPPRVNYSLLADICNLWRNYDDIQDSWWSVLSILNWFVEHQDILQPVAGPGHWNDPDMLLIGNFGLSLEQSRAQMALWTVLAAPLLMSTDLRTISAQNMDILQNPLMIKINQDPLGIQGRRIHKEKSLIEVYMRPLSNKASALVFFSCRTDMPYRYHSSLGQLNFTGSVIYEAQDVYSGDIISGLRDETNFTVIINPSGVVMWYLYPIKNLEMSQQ
UniProt P35579, whole entry: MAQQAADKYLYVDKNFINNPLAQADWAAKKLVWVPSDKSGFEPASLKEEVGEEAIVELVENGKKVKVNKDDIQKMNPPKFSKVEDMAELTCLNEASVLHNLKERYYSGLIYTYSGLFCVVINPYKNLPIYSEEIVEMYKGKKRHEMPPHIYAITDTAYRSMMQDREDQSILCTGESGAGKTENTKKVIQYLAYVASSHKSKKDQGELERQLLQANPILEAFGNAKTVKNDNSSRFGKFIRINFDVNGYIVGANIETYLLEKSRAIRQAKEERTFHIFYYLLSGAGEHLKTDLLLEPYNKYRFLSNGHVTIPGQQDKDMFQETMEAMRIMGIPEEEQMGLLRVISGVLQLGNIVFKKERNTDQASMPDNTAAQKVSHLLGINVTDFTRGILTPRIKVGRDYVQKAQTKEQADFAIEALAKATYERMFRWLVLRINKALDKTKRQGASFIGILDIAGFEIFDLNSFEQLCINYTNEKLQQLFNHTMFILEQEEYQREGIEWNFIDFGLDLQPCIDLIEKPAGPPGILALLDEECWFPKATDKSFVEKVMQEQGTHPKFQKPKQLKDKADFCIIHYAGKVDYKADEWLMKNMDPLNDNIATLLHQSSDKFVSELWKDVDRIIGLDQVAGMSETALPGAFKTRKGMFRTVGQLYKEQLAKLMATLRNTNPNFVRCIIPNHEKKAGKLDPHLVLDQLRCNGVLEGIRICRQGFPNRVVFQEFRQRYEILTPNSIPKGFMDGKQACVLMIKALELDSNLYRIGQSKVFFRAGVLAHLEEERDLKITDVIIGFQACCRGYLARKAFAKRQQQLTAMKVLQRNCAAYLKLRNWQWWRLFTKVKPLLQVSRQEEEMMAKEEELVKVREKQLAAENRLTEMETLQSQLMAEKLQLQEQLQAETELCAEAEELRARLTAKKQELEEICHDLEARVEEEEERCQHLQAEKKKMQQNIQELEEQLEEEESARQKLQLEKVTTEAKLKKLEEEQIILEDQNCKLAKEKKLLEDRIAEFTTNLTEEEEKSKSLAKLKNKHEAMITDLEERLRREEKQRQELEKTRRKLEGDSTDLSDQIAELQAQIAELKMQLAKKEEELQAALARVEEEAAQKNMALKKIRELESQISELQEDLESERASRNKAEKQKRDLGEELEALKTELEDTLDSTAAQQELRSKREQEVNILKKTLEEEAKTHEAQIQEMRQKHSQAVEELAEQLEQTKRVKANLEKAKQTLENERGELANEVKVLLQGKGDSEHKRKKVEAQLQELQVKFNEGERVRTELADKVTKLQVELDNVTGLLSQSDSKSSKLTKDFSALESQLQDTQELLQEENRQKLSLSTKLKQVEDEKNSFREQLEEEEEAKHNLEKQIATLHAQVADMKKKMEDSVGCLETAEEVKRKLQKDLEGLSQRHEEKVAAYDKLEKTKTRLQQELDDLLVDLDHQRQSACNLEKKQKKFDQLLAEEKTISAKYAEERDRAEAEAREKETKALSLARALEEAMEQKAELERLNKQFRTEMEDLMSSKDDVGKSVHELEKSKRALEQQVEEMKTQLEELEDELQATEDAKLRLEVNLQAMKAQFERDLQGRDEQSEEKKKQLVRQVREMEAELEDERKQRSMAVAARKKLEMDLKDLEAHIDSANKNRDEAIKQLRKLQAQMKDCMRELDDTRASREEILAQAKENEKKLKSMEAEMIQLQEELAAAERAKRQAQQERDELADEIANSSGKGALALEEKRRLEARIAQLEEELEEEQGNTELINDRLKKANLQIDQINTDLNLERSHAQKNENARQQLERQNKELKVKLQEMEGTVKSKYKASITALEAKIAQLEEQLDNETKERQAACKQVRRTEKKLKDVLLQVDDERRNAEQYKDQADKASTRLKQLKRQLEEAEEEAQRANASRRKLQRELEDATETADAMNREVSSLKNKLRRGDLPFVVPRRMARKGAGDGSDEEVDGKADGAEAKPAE
UniProt P18754: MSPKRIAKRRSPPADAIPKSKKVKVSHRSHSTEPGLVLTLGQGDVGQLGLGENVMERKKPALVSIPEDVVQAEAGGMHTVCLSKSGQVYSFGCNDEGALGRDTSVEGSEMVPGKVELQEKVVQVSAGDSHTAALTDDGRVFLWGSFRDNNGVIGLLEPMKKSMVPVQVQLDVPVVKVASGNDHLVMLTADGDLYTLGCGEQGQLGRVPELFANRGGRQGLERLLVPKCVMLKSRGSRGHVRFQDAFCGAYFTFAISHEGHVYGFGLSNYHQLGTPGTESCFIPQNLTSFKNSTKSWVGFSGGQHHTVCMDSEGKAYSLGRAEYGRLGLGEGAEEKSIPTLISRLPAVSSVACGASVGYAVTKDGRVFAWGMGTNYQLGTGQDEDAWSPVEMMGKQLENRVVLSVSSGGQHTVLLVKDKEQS
UniProt P21912: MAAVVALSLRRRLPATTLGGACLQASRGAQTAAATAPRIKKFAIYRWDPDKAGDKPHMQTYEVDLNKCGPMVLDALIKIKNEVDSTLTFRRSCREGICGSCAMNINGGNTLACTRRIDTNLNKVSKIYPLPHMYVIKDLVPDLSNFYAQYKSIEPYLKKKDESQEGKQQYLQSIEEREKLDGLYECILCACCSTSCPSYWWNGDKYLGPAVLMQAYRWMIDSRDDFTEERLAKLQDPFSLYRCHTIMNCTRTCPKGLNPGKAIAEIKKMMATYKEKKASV
UniProt P19532: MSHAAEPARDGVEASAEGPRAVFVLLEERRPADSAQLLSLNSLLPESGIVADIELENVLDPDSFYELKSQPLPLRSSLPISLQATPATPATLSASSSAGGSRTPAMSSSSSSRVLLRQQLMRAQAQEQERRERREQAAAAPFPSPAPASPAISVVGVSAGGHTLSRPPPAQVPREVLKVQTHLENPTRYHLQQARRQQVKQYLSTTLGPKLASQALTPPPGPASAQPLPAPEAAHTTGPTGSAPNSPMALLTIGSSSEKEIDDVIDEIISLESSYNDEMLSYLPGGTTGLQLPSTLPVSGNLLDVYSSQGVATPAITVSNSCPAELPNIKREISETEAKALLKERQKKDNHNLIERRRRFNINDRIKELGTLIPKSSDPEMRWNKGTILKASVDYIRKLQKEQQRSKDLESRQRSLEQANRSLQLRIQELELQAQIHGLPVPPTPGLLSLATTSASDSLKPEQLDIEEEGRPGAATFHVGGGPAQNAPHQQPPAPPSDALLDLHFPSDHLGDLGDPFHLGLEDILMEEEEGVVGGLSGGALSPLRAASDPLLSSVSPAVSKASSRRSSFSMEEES
UniProt P29016: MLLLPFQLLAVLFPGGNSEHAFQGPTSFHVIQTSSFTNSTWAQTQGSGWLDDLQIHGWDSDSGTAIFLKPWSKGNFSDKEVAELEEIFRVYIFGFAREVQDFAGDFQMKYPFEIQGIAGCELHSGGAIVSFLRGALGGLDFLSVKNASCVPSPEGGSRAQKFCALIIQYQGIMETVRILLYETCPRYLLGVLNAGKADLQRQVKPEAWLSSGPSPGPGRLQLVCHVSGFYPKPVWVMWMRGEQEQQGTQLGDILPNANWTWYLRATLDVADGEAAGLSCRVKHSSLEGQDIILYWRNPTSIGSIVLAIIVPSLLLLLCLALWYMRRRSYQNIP
UniProt P20020: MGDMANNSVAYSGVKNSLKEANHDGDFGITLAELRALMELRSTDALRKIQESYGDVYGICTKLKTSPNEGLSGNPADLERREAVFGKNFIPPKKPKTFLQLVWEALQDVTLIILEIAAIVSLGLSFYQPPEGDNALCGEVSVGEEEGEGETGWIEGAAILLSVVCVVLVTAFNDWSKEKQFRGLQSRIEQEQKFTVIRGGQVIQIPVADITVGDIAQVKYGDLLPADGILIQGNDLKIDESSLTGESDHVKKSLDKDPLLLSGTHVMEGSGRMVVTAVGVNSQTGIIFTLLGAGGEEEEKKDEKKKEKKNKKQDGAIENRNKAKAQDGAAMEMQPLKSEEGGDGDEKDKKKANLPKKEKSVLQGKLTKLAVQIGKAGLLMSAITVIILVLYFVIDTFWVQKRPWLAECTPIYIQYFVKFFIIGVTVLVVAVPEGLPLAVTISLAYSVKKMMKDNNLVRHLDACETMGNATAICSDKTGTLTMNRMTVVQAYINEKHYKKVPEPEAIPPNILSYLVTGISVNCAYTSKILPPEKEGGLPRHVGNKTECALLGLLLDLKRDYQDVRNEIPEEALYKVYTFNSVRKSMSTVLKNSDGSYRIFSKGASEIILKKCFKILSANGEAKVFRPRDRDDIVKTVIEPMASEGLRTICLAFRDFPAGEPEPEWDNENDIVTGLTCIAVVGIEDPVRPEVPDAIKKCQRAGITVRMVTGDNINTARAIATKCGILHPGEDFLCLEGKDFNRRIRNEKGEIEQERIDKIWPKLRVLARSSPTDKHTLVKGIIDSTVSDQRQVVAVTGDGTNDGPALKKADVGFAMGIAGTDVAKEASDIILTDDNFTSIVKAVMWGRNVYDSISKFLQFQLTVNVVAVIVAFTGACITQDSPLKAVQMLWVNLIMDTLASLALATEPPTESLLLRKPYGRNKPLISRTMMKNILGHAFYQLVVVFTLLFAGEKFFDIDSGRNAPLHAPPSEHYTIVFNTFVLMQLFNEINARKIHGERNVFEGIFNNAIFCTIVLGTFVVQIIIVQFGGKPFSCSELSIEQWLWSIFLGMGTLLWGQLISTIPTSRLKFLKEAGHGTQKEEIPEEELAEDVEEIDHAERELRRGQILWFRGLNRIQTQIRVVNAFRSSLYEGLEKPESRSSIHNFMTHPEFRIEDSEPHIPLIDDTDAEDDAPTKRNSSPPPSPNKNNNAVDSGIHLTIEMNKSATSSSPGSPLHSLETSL
UniProt P32929, whole entry: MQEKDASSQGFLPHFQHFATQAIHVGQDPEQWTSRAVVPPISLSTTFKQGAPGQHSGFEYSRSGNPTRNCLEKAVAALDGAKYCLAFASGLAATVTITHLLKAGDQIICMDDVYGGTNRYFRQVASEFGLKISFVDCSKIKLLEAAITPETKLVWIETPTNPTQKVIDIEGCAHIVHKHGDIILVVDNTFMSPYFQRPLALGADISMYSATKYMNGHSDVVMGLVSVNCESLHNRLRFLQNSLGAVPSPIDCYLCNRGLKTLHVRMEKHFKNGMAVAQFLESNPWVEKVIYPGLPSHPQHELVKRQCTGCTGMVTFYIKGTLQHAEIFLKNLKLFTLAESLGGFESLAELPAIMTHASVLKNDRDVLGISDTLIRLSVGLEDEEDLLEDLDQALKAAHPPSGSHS
UniProt P35659: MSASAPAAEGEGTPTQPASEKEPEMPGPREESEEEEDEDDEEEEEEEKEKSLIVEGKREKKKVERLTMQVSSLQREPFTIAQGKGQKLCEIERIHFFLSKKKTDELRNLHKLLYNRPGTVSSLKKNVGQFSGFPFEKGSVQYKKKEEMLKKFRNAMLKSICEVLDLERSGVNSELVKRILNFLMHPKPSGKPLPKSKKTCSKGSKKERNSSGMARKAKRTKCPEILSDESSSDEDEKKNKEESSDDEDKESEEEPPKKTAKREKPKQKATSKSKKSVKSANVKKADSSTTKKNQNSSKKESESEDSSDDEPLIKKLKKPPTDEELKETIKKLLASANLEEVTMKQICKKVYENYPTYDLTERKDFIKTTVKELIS

Compound: Nc1ncnc2c1ncn2[C@@H]1O[C@H](COP(=O)(O)OP(=O)(O)OP(=O)(O)O)[C@@H](O)[C@H]1O [adenosine triphosphate]
Test: NP40-soluble protein abundance relative to vehicle (solubility fold change) (ratio); higher = more soluble protein in presence of ATP
Outline: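 Jurkat crude lysate (Dounce-homogenised) was treated with eight concentrations from 0.1 to 10 mM for 10 min at room temperature, then 3 min at 37 °C. It was solubilised with 0.8% NP40 and benzonase (60 min, 4 °C) and ultracentrifuged, and the supernatant was TMT-labelled for LC-MS/MS. Intensities were vsn-normalised, and the value is the fold change against the NP40-processed vehicle per replicate, from three independent experiments.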

Target	NP40-soluble protein abundance (concentration: 1mM)	NP40-soluble protein abundance (concentration: 2mM)	NP40-soluble protein abundance (concentration: 4mM)	NP40-soluble protein abundance (concentration: 6mM)	NP40-soluble protein abundance (concentration: 8mM)	NP40-soluble protein abundance (concentration: 10mM)
SPR (UniProt P35270)	0.905 ± 0.059	0.926 ± 0.085	0.951 ± 0.082	0.856 ± 0.048	0.937 ± 0.071	0.961 ± 0.08
HMGB2 (UniProt P26583)	1.02 ± 0.17	0.944 ± 0.1	0.97 ± 0.12	1.05 ± 0.14	1.02 ± 0.018	0.851 ± 0.22
HNRNPA2B1 (UniProt P22626)	1.14 ± 0.12	1.04 ± 0.13	1.04 ± 0.13	1.19 ± 0.28	1.18 ± 0.2	1.22 ± 0.22
NAGA (UniProt P17050)	0.986 ± 0.036	1 ± 0.018	0.996 ± 0.031	0.974 ± 0.019	0.955 ± 0.057	0.95 ± 0.031
MYH9 (UniProt P35579)	0.98 ± 0.11	0.983 ± 0.07	0.921 ± 0.074	1.03 ± 0.064	0.976 ± 0.059	0.903 ± 0.059
SLC7A1 (UniProt P30825)	0.941 ± 0.063	0.95 ± 0.071	0.947 ± 0.049	0.893 ± 0.036	0.924 ± 0.063	0.884 ± 0.047
UniProt P32019 and related entries	1.02 ± 0.2	1 ± 0.12	1.02 ± 0.17	0.925 ± 0.12	1 ± 0.14	0.941 ± 0.047
ZKSCAN1 (UniProt P17029)	0.877 ± 0.056	0.873 ± 0.095	0.879 ± 0.14	0.883 ± 0.16	0.914 ± 0.14	0.952 ± 0.13
GOT1 (UniProt P17174)	0.987 ± 0.063	0.94 ± 0.038	0.922 ± 0.025	0.932 ± 0.088	0.914 ± 0.014	0.919 ± 0.033
UniProt P26038 and related entries	1.01 ± 0.058	0.954 ± 0.031	0.943 ± 0.012	1 ± 0.065	0.915 ± 0.055	0.914 ± 0.06
ERCC2 (UniProt P18074)	1.02 ± 0.1	1.03 ± 0.087	1.08 ± 0.053	1.02 ± 0.087	1.1 ± 0.056	1.09 ± 0.019
RPL22 (UniProt P35268)	0.985 ± 0.042	1 ± 0.028	1.03 ± 0.083	1.01 ± 0.056	1.01 ± 0.07	1.26 ± 0.14
ABCD1 (UniProt P33897)	1.11 ± 0.024	1.11 ± 0.037	1.15 ± 0.089	1.08 ± 0.043	1.14 ± 0.11	1.1 ± 0.027
EEF1B2 (UniProt P24534)	0.833 ± 0.41	0.82 ± 0.31	0.927 ± 0.11	0.701 ± 0.27	0.808 ± 0.056	0.68 ± 0.18
UniProt P35580 and related entries	1.06 ± 0.064	1.05 ± 0.048	1.02 ± 0.044	1.07 ± 0.068	1 ± 0.033	1.01 ± 0.028
UniProt P25054 and related entries	0.962 ± 0.089	0.987 ± 0.072	0.991 ± 0.028	1.05 ± 0.15	0.966 ± 0.024	0.978 ± 0.027
UniProt P18754 and related entries	1.01 ± 0.045	1.03 ± 0.022	1.02 ± 0.022	1.04 ± 0.024	1.04 ± 0.041	1.03 ± 0.03
SDHB (UniProt P21912)	0.9636 ± 0.0081	0.971 ± 0.026	0.947 ± 0.012	0.957 ± 0.011	0.943 ± 0.022	0.909 ± 0.028
UniProt P25325 and related entries	0.98 ± 0.034	0.974 ± 0.014	0.93 ± 0.019	1.05 ± 0.045	0.986 ± 0.073	0.974 ± 0.06
UniProt P29375 and related entries	1.2 ± 0.19	1.23 ± 0.16	1.29 ± 0.11	1.35 ± 0.19	1.46 ± 0.15	1.5 ± 0.13

Target	NP40-soluble protein abundance (concentration: 1mM)	NP40-soluble protein abundance (concentration: 2mM)	NP40-soluble protein abundance (concentration: 4mM)	NP40-soluble protein abundance (concentration: 6mM)	NP40-soluble protein abundance (concentration: 8mM)	NP40-soluble protein abundance (concentration: 10mM)
RFC4 (UniProt P35249)	1.18 ± 0.04	1.23 ± 0.04	1.26 ± 0.048	1.32 ± 0.055	1.3 ± 0.032	1.26 ± 0.031
DGKA (UniProt P23743)	1.16 ± 0.13	1.12 ± 0.094	1.09 ± 0.1	1.06 ± 0.13	1.14 ± 0.075	1.08 ± 0.067
TFE3 (UniProt P19532)	1 ± 0.065	0.999 ± 0.084	1.04 ± 0.073	0.961 ± 0.013	0.967 ± 0.11	0.908 ± 0.1
UniProt P29016	0.904 ± 0.11	0.997 ± 0.028	0.984 ± 0.024	0.955 ± 0.076	0.941 ± 0.047	0.905 ± 0.059
UniProt P23443 and related entries	0.989 ± 0.085	1.01 ± 0.086	0.981 ± 0.032	0.94 ± 0.12	0.99 ± 0.029	1.02 ± 0.054
TCEA1 (UniProt P23193)	0.926 ± 0.04	0.957 ± 0.014	0.934 ± 0.036	0.9666 ± 0.0084	0.92 ± 0.019	0.93 ± 0.024
UniProt P20020 and related entries	1.01 ± 0.094	0.99 ± 0.069	0.985 ± 0.062	1.03 ± 0.079	1.01 ± 0.097	1.02 ± 0.035
SLC9A1 (UniProt P19634)	0.912 ± 0.067	0.893 ± 0.031	0.897 ± 0.036	0.942 ± 0.092	0.883 ± 0.061	0.855 ± 0.078
UniProt P25705 and related entries	0.975 ± 0.031	0.946 ± 0.019	0.913 ± 0.023	0.944 ± 0.042	0.921 ± 0.052	0.931 ± 0.052
CHM (UniProt P24386)	1.03 ± 0.027	1.04 ± 0.068	1.02 ± 0.071	0.981 ± 0.095	0.986 ± 0.071	1.03 ± 0.086
UniProt P18433 and related entries	1.04 ± 0.093	1.04 ± 0.095	1.06 ± 0.14	0.987 ± 0.097	1.03 ± 0.13	1.01 ± 0.12
UniProt P34897 and related entries	0.968 ± 0.051	0.966 ± 0.035	0.951 ± 0.036	0.92 ± 0.061	0.958 ± 0.035	0.974 ± 0.047
AKAP5 (UniProt P24588)	0.905 ± 0.031	0.944 ± 0.011	0.933 ± 0.046	0.949 ± 0.064	0.929 ± 0.099	0.9564 ± 0.0074
PIK3R1 (UniProt P27986)	0.995 ± 0.012	0.987 ± 0.016	0.968 ± 0.011	0.998 ± 0.034	0.976 ± 0.0084	0.972 ± 0.017
UniProt P35609-2	0.832 ± 0.026	0.852 ± 0.049	0.822 ± 0.071	0.981 ± 0.086	0.818 ± 0.02	0.953 ± 0.015
GGT1 (UniProt P19440)	0.951 ± 0.034	1.05 ± 0.056	0.992 ± 0.023	1.02 ± 0.036	0.925 ± 0.036	0.857 ± 0.13
POLR2C (UniProt P19387)	1.05 ± 0.029	1.04 ± 0.044	1.05 ± 0.036	1.08 ± 0.086	1.06 ± 0.05	1.06 ± 0.051
AHCY (UniProt P23526)	0.984 ± 0.074	0.962 ± 0.07	0.949 ± 0.051	0.929 ± 0.095	0.976 ± 0.051	0.954 ± 0.063
CTH (UniProt P32929)	1.05 ± 0.14	0.979 ± 0.077	0.958 ± 0.057	0.885 ± 0.1	0.97 ± 0.017	0.982 ± 0.051
DEK (UniProt P35659)	1.04 ± 0.092	1.09 ± 0.042	1.1 ± 0.047	1.19 ± 0.051	1.12 ± 0.023	1.13 ± 0.021

2 records picked at random from those above, as already listed:
Target	NP40-soluble protein abundance (concentration: 1mM)	NP40-soluble protein abundance (concentration: 2mM)	NP40-soluble protein abundance (concentration: 4mM)	NP40-soluble protein abundance (concentration: 6mM)	NP40-soluble protein abundance (concentration: 8mM)	NP40-soluble protein abundance (concentration: 10mM)
DGKA (UniProt P23743)	1.16 ± 0.13	1.12 ± 0.094	1.09 ± 0.1	1.06 ± 0.13	1.14 ± 0.075	1.08 ± 0.067
GGT1 (UniProt P19440)	0.951 ± 0.034	1.05 ± 0.056	0.992 ± 0.023	1.02 ± 0.036	0.925 ± 0.036	0.857 ± 0.13

Later entries

Target	NP40-soluble protein abundance (concentration: 1mM)	NP40-soluble protein abundance (concentration: 2mM)	NP40-soluble protein abundance (concentration: 4mM)	NP40-soluble protein abundance (concentration: 6mM)	NP40-soluble protein abundance (concentration: 8mM)	NP40-soluble protein abundance (concentration: 10mM)
UniProt P27824 and related entries	0.938 ± 0.015	0.9225 ± 0.0066	0.88 ± 0.017	0.924 ± 0.028	0.907 ± 0.04	0.905 ± 0.018
UniProt P22694-2|P22694-3|P22694	1.04 ± 0.02	1.06 ± 0.028	1.02 ± 0.028	1.015 ± 0.0099	1.02 ± 0.033	1.02 ± 0.024
UniProt P25786 and related entries	0.968 ± 0.032	0.93 ± 0.018	0.902 ± 0.022	0.93 ± 0.081	0.913 ± 0.044	0.897 ± 0.026
RPL13 (UniProt P26373)	0.934 ± 0.11	0.901 ± 0.2	0.844 ± 0.18	0.798 ± 0.21	0.687 ± 0.13	0.888 ± 0.16
UniProt P30307 and related entries	0.955 ± 0.026	0.992 ± 0.039	0.973 ± 0.058	0.955 ± 0.054	0.901 ± 0.052	0.905 ± 0.078
MAT2A (UniProt P31153)	0.981 ± 0.054	0.953 ± 0.047	0.932 ± 0.028	0.942 ± 0.071	0.955 ± 0.028	0.938 ± 0.062
RFC2 (UniProt P35250)	1.23 ± 0.034	1.28 ± 0.04	1.3 ± 0.03	1.33 ± 0.046	1.34 ± 0.049	1.34 ± 0.073
CSRP1 (UniProt P21291)	0.958 ± 0.025	0.97 ± 0.018	0.937 ± 0.019	0.945 ± 0.053	0.95 ± 0.02	0.944 ± 0.014
ABCD3 (UniProt P28288)	1.09 ± 0.14	1.08 ± 0.13	1.07 ± 0.096	0.975 ± 0.11	1.11 ± 0.067	1.06 ± 0.073
MCM3 (UniProt P25205)	0.963 ± 0.04	0.939 ± 0.023	0.91 ± 0.012	0.8963 ± 0.0084	0.933 ± 0.027	0.937 ± 0.04
TRIM21 (UniProt P19474)	0.99 ± 0.034	0.984 ± 0.044	0.979 ± 0.055	0.981 ± 0.06	0.984 ± 0.045	0.972 ± 0.04
CORO1A (UniProt P31146)	1.05 ± 0.022	1.04 ± 0.035	1.02 ± 0.015	1.06 ± 0.036	1.05 ± 0.03	1.04 ± 0.054
UniProt P30049	0.956 ± 0.089	0.919 ± 0.017	0.914 ± 0.056	0.941 ± 0.087	0.947 ± 0.036	0.837 ± 0.011
UniProt P35606 and related entries	1.01 ± 0.065	0.992 ± 0.061	0.985 ± 0.053	0.975 ± 0.027	1.02 ± 0.027	0.98 ± 0.046
UniProt P27540 and related entries	0.991 ± 0.028	1.01 ± 0.024	0.989 ± 0.011	0.991 ± 0.03	0.947 ± 0.016	0.986 ± 0.036
SCP2 (UniProt P22307)	0.9333 ± 0.0015	0.969 ± 0.013	0.931 ± 0.011	0.941 ± 0.028	0.914 ± 0.024	0.911 ± 0.035
UniProt P20339 and related entries	0.916 ± 0.079	0.977 ± 0.041	0.956 ± 0.037	0.899 ± 0.11	0.949 ± 0.1	0.988 ± 0.033
UniProt P32242	0.954 ± 0.19	0.872 ± 0.15	0.953 ± 0.18	0.847 ± 0.13	0.914 ± 0.14	0.956 ± 0.17
UniProt P30520	0.965 ± 0.046	0.952 ± 0.049	0.952 ± 0.04	0.934 ± 0.059	0.959 ± 0.054	0.934 ± 0.054
PPP2R1A (UniProt P30153)	0.964 ± 0.014	0.953 ± 0.022	0.921 ± 0.012	0.917 ± 0.018	0.909 ± 0.023	0.913 ± 0.026
